Test results published in patent publication US20080119483A1, “COMPOSITIONS AND METHODS FOR INHIBITING PROTOZOAN GROWTH” (priority 2006, published 2008).

Key:
[1] = test system: L. major LV39 WT promastigotes; assay: microbe, parasite or virus in culture; format: cell-based; details: Leishmania major, 48 h, read-out: EC50 in WT
Method: (§1) Log phase L. major LV39 WT and spt2 promastigotes were inoculated at 1.0×10^5 cells/ml and culture densities were determined 48 hours later.
(§2) Wild type (WT) L. major LV39 clone 5 (Rho/SU/59/P), FV1 (MOHM/IL/80/Friedlin virulent clone 1), spt2^− (Δspt2::HYG/Dspt2::PAC), ads1^− (Δads1::HYG/Dads1::SAT), and spt2^−/+SPT2 (Δspt2::HYG/Dspt2::PAC/+pXG-SPT2) cells were grown in M199 with 10% FBS and supplements as described [Zhang, et al., 2003; Kapler, et al., 1990]. For growth inhibition assays, promastigotes were inoculated at 1.0×10^5 cells/ml (in T25 flasks, 5 ml of medium per flask) in various concentrations of drugs. All cultures contained equivalent amount of DMSO or methanol (0.1% or less, from drug stocks). After 48 or 96 (for ads1^− only) hours, culture densities were determined using a Coulter counter (Z1, Beckman) and effects of drugs on growth were assessed in relative to cultures grown in the absence of drugs.
A classical isobologram was constructed by plotting EC50s of drugs either alone or in combination.

[2] = test system: L. major spt2^− promastigotes; assay: microbe, parasite or virus in culture; format: cell-based, Leishmania major; details: for EC50: Leishmania major, 48 h, read-out: EC50 in spt2^−
Method: as §1, §2

| SMILES | EC50 [1] | EC50 [2] | EC50 (WT)/EC50 (spt2^−) ([2]; ratio) | Selectivity against spt2^− parasites (in words) ([2]; spt2^− versus LV39 WT) |
| --- | --- | --- | --- | --- |
| Clc1ccccc1C(c1ccccc1)(c1ccccc1)n1ccnc1 [Clotrimazole] | 1.5 µM | 0.65 µM | 2.3 | did not show such selective activity |
| Clc1ccc(COC(Cn2ccnc2)c2ccc(Cl)cc2Cl)c(Cl)c1 (stereo not drawn) [Miconazole] | 4.3 µM | 0.7 µM |  |  |
